Test results from PubChem BioAssay (NCATS).
The shares of active, inactive and inconclusive entries below differ from those in the screen. For some assays here: A potency beside an inconclusive call is a rough fit, not a confirmed value. The source made the active and inactive calls. The call rests on the fitted dose curve; in most records, active means well fitted curve in the direction sought with a large enough effect; inconclusive means small, poorly fitted or top-dose-only effect, or another doubt; inactive means no such curve, though single readings can be large; an effect the other way counts as inactive or inconclusive.

How the values were obtained:
[1] = Quantitative High-Throughput drug screen in 47 multiple myeloma cell lines against the NCATS MIPE library collection: KMS20_JCRB cell viability assay (AID 1918973); settings: CellTiter-Glo ATP, 48 h; viability (% of DMSO): at 45.8 µM (top of the series); further: nearly all actives have a fitted effect of over 45% in size
How it was run: (§1)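 Viability readout: CellTiter-Glo luminescence following 5 min room-temperature incubation with reagent. Prior exposure: 48 h, 37C, humidified 5% CO2, 500 cells per well.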

[2] = Quantitative High-Throughput drug screen in 47 multiple myeloma cell lines against the NCATS MIPE library collection: KMS21BM_JCRB cell viability assay (AID 1918974); settings: ATP luminescence, 48 h; viability: at 45.8 µM (top of the series) unless noted
How it was run: as §1

[3] = Quantitative High-Throughput drug screen in 47 multiple myeloma cell lines against the NCATS MIPE library collection: KMS26_JCRB cell viability assay (AID 1918975); settings: KMS26 myeloma cells viability, CellTiter-Glo ATP, 48 h; viability (% of DMSO): at 45.8 µM (top of the series); further: nearly all actives have a fitted effect of over 45% in size
How it was run: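 Luminescent ATP measurement with CellTiter-Glo gives viability, scaled between DMSO-only wells (100%) and media-only wells (0%). Cells, 500 per well, faced library compounds for 48 hours at 37C.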

[4] = Quantitative High-Throughput drug screen in 47 multiple myeloma cell lines against the NCATS MIPE library collection: MMM1_PLB cell viability assay (AID 1918976); further: nearly all actives have a fitted effect of over 35% in size
How it was run: (§2)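 Myeloma cells (500/well) treated with MIPE 4.0 compounds for 48 h at 37 °C, 5% CO2. Viability read as ATP via CellTiter-Glo luminescence after 5 min at RT; DMSO-only wells = 100%, media-only = 0% viability.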

[5] = Quantitative High-Throughput drug screen in 47 multiple myeloma cell lines against the NCATS MIPE library collection: MOLP8_DSMZ cell viability assay (AID 1918977); settings: MOLP8 myeloma viability, CellTiter-Glo ATP luminescence, 48 h; viability (% of control): at 45.8 µM (top of the series); further: nearly all actives have a fitted effect of over 45% in size
How it was run: as §2

[6] = Quantitative High-Throughput drug screen in 47 multiple myeloma cell lines against the NCATS MIPE library collection: MM1S_ATCC cell viability assay (AID 1918980); further: nearly all actives have a fitted effect of over 45% in size
How it was run: as §2

[7] = Quantitative High-Throughput drug screen in 47 multiple myeloma cell lines against the NCATS MIPE library collection: LP1_DSMZ cell viability assay (AID 1918982); settings: LP1 myeloma viability, CellTiter-Glo ATP luminescence, 48 h; viability (% of control): at 45.8 µM (top of the series); further: nearly all actives have a fitted effect of over 35% in size
How it was run: as §2

[8] = Quantitative High-Throughput drug screen in 47 multiple myeloma cell lines against the NCATS MIPE library collection: L363_DSMZ cell viability assay (AID 1918984); settings: L363 myeloma viability, CellTiter-Glo ATP luminescence, 48 h; viability (% of control): at 45.8 µM (top of the series); further: nearly all actives have a fitted effect of over 40% in size
How it was run: as §2

[9] = Quantitative High-Throughput drug screen in 47 multiple myeloma cell lines against the NCATS MIPE library collection: KMS34_JCRB cell viability assay (AID 1918985); settings: KMS34 myeloma viability, CellTiter-Glo ATP luminescence, 48 h; viability, percent of control: at 45.8 µM (top of the series); further: nearly all actives have a fitted effect of over 40% in size
How it was run: as §2

[10] = Quantitative High-Throughput drug screen in 47 multiple myeloma cell lines against the NCATS MIPE library collection: OCIMY7_PLB cell viability assay (AID 1918987); settings: OCI-MY7 myeloma viability, CellTiter-Glo ATP, 48 h; viability (% of DMSO): at 45.8 µM (top of the series); further: nearly all actives have a fitted effect of over 65% in size
How it was run: as §2

[11] = Quantitative High-Throughput drug screen in 47 multiple myeloma cell lines against the NCATS MIPE library collection: OCIMY5_PLB cell viability assay (AID 1918988); settings: OCI-MY5 myeloma viability, ATP luminescence, 48 h; viability, % of control: at 45.8 µM (top of the series); further: nearly all actives have a fitted effect of over 65% in size
How it was run: as §2

[12] = Quantitative High-Throughput drug screen in 47 multiple myeloma cell lines against the NCATS MIPE library collection: OPM1_PLB cell viability assay (AID 1918989); further: nearly all actives have a fitted effect of over 40% in size
How it was run: as §2

[13] = Quantitative High-Throughput drug screen in 47 multiple myeloma cell lines against the NCATS MIPE library collection: SKMM1_PLB cell viability assay (AID 1919863); settings: SKMM1 myeloma viability, CellTiter-Glo ATP, 48 h; viability: active compounds read low; further: nearly all actives have a fitted effect of over 35% in size
How it was run: as §2

[14] = Quantitative High-Throughput drug screen in 47 multiple myeloma cell lines against the NCATS MIPE library collection: KMS28PE_JCRB cell viability assay (AID 1918983); further: nearly all actives have a fitted effect of over 35% in size
How it was run: as §2

[15] = Quantitative High-Throughput drug screen in 47 multiple myeloma cell lines against the NCATS MIPE library collection: XG6_PLB cell viability assay (AID 1919865); settings: XG6 myeloma viability, CellTiter-Glo ATP luminescence, 48 h; viability (% of control): at 45.8 µM (top of the series); further: nearly all actives have a fitted effect of over 40% in size
How it was run: as §2

[16] = Quantitative High-Throughput drug screen in 47 multiple myeloma cell lines against the NCATS MIPE library collection: XG1_PLB cell viability assay (AID 1919866); settings: CellTiter-Glo ATP, 48 h; viability: at 45.8 µM (top of the series); further: nearly all actives have a fitted effect of over 35% in size
How it was run: as §2

[17] = Quantitative High-Throughput drug screen in 47 multiple myeloma cell lines against the NCATS MIPE library collection: OCIMY1_PLB cell viability assay (AID 1918979); settings: OCI-MY1 myeloma viability, CellTiter-Glo ATP, 48 h; viability: at 45.8 µM (top of the series) unless noted; further: nearly all actives have a fitted effect of over 35% in size
How it was run: as §2

[18] = Quantitative High-Throughput drug screen in 47 multiple myeloma cell lines against the NCATS MIPE library collection: MM1R_ATCC cell viability assay (AID 1918981); further: nearly all actives have a fitted effect of over 35% in size
How it was run: as §2

[19] = Quantitative High-Throughput drug screen in 47 multiple myeloma cell lines against the NCATS MIPE library collection: U266_ATCC cell viability assay (AID 1919864); settings: U266 myeloma viability, CellTiter-Glo ATP luminescence, 48 h; viability (% of DMSO control): at 45.8 µM (top of the series); further: nearly all actives have a fitted effect of over 35% in size
How it was run: as §2

[20] = Quantitative High-Throughput drug screen in 47 multiple myeloma cell lines against the NCATS MIPE library collection: NCIH929_DSMZ cell viability assay (AID 1918978); further: nearly all actives have a fitted effect of over 35% in size
How it was run: as §2
Potency means the concentration at half of the fitted maximal effect.

CC(Oc1ccc(O)cc1)(P(=O)(O)O)P(=O)(O)O
inactive: Potency [3] | Potency [4] | Potency [5] | Potency [7] | Potency [8] | Potency [9] | viability [13] 108%
inconclusive: Potency [1] 0.0012 µM [cytotoxic, full curve, poor fit] | Potency [2] 26.4 µM [rising, partial curve] | Potency [6] 5.26 µM [cytotoxic, partial curve, poor fit] | Potency [10] 18.7 nM [rising, full curve, poor fit] | Potency [11] 3.72 µM [cytotoxic, partial curve, poor fit] | Potency [12] 7.43 µM [cytotoxic, partial curve, poor fit]

COc1cc2ncn(-c3cc(OCc4ccccc4S(C)(=O)=O)c(C#N)s3)c2cc1OC
inactive: Potency [1] | Potency [3] | Potency [9] | Potency [12]
inconclusive: Potency [2] 37.2 µM [rising, single point] | Potency [5] 0.003 µM [cytotoxic, full curve, poor fit] | Potency [14] 18.7 µM [cytotoxic, partial curve, poor fit] | Potency [8] 0.0037 µM [cytotoxic, full curve, poor fit] | Potency [10] 1660 nM [cytotoxic, full curve, poor fit] | Potency [11] 1.87 µM [cytotoxic, full curve, poor fit] | Potency [13] 2.35 µM [cytotoxic, full curve, poor fit] | Potency [15] 3.72 µM [cytotoxic, full curve] | Potency [16] 4.69 µM [cytotoxic, full curve, poor fit]
active: Potency [4] 5.9 µM | Potency [6] 20.9 µM

Clc1ccc2ncc(-c3cccc(NC4CNC4)n3)n2c1
active: Potency [3] 23.5 µM | Potency [17] 20.9 µM | Potency [18] 16.6 µM | Potency [16] 14.8 µM
inconclusive: Potency [1] 10.5 µM [cytotoxic, partial curve, poor fit] | Potency [2] 0.0372 µM [rising, full curve, poor fit] | Potency [4] 9.35 µM [cytotoxic, partial curve, poor fit] | Potency [14] 23.5 µM [cytotoxic, single point] | Potency [8] 5.26 µM [cytotoxic, partial curve, poor fit] | Potency [13] 37.2 µM [cytotoxic, single point]

O=C(C=Cc1c(C(=O)O)[nH]c2cc(Cl)cc(Cl)c12)Nc1ccccc1
inactive: Potency [1] | Potency [3] | Potency [6] | Potency [18] | Potency [10] | Potency [11] | Potency [15] | Potency [16]
inconclusive: Potency [2] 1.66 µM [cytotoxic, partial curve, poor fit] | Potency [4] 0.332 µM [rising, full curve] | viability (% of control) [5] 146% | Potency [8] 0.0012 µM [rising, full curve, poor fit] | Potency [9] 0.0053 µM [rising, full curve, poor fit] | Potency [19] 0.0166 µM [rising, full curve, poor fit]

Cc1n[nH]c(C)c1Cc1sc2c(c1C(=O)N1C[C@H](O)CO1)c(=O)n(C)c(=O)n2CC(C)C
inconclusive: Potency [1] 0.372 µM [cytotoxic, full curve, poor fit] | Potency [2] 33.2 µM [rising, partial curve] | Potency [3] 14.8 µM [cytotoxic, partial curve, poor fit] | Potency [4] 13.2 µM [cytotoxic, partial curve, poor fit] | Potency [7] 0.0469 µM [cytotoxic, full curve, poor fit] | Potency [10] 2.1 nM [rising, full curve, poor fit] | Potency [11] 10.5 µM [cytotoxic, full curve, poor fit] | Potency [12] 0.0264 µM [cytotoxic, full curve, poor fit] | Potency [13] 4.18 µM [cytotoxic, full curve, poor fit] | Potency [16] 0.0296 µM [cytotoxic, full curve, poor fit]
inactive: Potency [8] | Potency [9]
active: Potency [5] 0.935 µM

Cc1cnc(NC(=O)C2=C(O)c3ccccc3S(=O)(=O)N2C)s1
inactive: Potency [3] | Potency [5] | Potency [7] | Potency [9] | Potency [11]
inconclusive: Potency [1] 0.001 µM [cytotoxic] | Potency [2] 37.2 µM [cytotoxic, single point] | Potency [4] 0.0033 µM [rising, full curve, poor fit] | Potency [6] 0.0033 µM [rising, full curve, poor fit] | Potency [8] 13.2 µM [cytotoxic, partial curve, poor fit] | Potency [10] 11800 nM [rising, single point] | Potency [13] 1.48 µM [rising, full curve] | Potency [19] 0.0066 µM [rising, full curve, poor fit] | Potency [15] 37.2 µM [cytotoxic, single point] | Potency [16] 5.26 µM [cytotoxic, partial curve, poor fit]

CCN(CC)CCOc1ccc(Cc2ccccc2)cc1
inactive: Potency [1] | Potency [20] | Potency [10] | Potency [15]
inconclusive: Potency [2] 0.0469 µM [cytotoxic, full curve, poor fit] | Potency [3] 5.9 µM [cytotoxic, full curve, poor fit] | Potency [4] 20.9 µM [cytotoxic, partial curve, poor fit] | Potency [18] 23.5 µM [cytotoxic, single point] | Potency [8] 37.2 µM [cytotoxic, single point] | Potency [9] 10.5 µM [cytotoxic, partial curve, poor fit] | Potency [12] 37.2 µM [cytotoxic, single point] | Potency [13] 16.6 µM [cytotoxic, partial curve, poor fit]

O=C(CC12CC3CC(CC(C3)C1)C2)Nc1cccc2nc(NCCNCCO)ccc12
active: Potency [1] 6.62 µM | Potency [3] 18.7 µM | Potency [6] 8.33 µM | Potency [19] 23.5 µM | Potency [15] 1.18 µM
inconclusive: viability [2] 16.8% [cytotoxic] | Potency [4] 10.5 µM [cytotoxic, partial curve, poor fit] | Potency [5] 20.9 µM [cytotoxic, partial curve, poor fit] | Potency [7] 29.6 µM [cytotoxic, single point] | Potency [8] 11.8 µM [cytotoxic, full curve]

O=C1C(c2c(O)[nH]c3ccccc23)=Nc2ccccc21
inactive: Potency [8] | Potency [12]
inconclusive: Potency [1] 13.2 µM [rising, partial curve] | Potency [2] 7.43 µM [rising, full curve] | Potency [5] 4.18 µM [cytotoxic, full curve, poor fit] | Potency [20] 0.187 µM [cytotoxic, full curve, poor fit] | Potency [7] 18.7 µM [cytotoxic, partial curve, poor fit] | Potency [10] 418 nM [cytotoxic, full curve, poor fit] | Potency [13] 10.5 µM [cytotoxic, partial curve, poor fit]
active: Potency [3] 2.96 µM | Potency [9] 7.43 µM | Potency [19] 1.66 µM

2 neighbouring entries already listed, quoted:
CCN(CC)CCOc1ccc(Cc2ccccc2)cc1
inactive: Potency [1] | Potency [20] | Potency [10] | Potency [15]
inconclusive: Potency [2] 0.0469 µM [cytotoxic, full curve, poor fit] | Potency [3] 5.9 µM [cytotoxic, full curve, poor fit] | Potency [4] 20.9 µM [cytotoxic, partial curve, poor fit] | Potency [18] 23.5 µM [cytotoxic, single point] | Potency [8] 37.2 µM [cytotoxic, single point] | Potency [9] 10.5 µM [cytotoxic, partial curve, poor fit] | Potency [12] 37.2 µM [cytotoxic, single point] | Potency [13] 16.6 µM [cytotoxic, partial curve, poor fit]

O=C(CC12CC3CC(CC(C3)C1)C2)Nc1cccc2nc(NCCNCCO)ccc12
active: Potency [1] 6.62 µM | Potency [3] 18.7 µM | Potency [6] 8.33 µM | Potency [19] 23.5 µM | Potency [15] 1.18 µM
inconclusive: viability [2] 16.8% [cytotoxic] | Potency [4] 10.5 µM [cytotoxic, partial curve, poor fit] | Potency [5] 20.9 µM [cytotoxic, partial curve, poor fit] | Potency [7] 29.6 µM [cytotoxic, single point] | Potency [8] 11.8 µM [cytotoxic, full curve]

(listing goes on)

COC(=O)C1=C(C)NC(C)=C(C(=O)OC(C)C)C1c1cccc2nonc12 (stereo not given)
inconclusive: Potency [2] 33.2 µM [rising, single point] | Potency [5] 26.4 µM [cytotoxic, single point] | Potency [8] 0.0372 µM [cytotoxic, full curve, poor fit] | Potency [9] 0.372 µM [cytotoxic, partial curve, poor fit] | Potency [13] 6.62 µM [cytotoxic, partial curve, poor fit]
active: Potency [1] 20.9 µM | Potency [20] 2.64 µM | Potency [6] 2.35 µM | Potency [10] 6620 nM
inactive: Potency [3] | Potency [18] | Potency [7] | Potency [11]

CC[C@H](C)C(=O)O[C@H]1C[C@@H](C)C=C2C=C[C@H](C)[C@H](CC[C@@H]3C[C@@H](O)CC(=O)O3)[C@H]21
inactive: Potency [17] | Potency [8]
inconclusive: Potency [1] 7.43 µM [cytotoxic, partial curve] | Potency [2] 8.33 µM [rising, full curve] | Potency [3] 23.5 µM [cytotoxic, partial curve, poor fit] | Potency [5] 10.5 µM [cytotoxic, partial curve] | Potency [20] 14.8 µM [cytotoxic, partial curve] | Potency [14] 23.5 µM [cytotoxic, partial curve] | Potency [9] 26.4 µM [cytotoxic, partial curve, poor fit] | Potency [13] 23.5 µM [cytotoxic, partial curve, poor fit] | Potency [19] 18.7 µM [cytotoxic, partial curve, poor fit] | Potency [15] 18.7 µM [cytotoxic, partial curve, poor fit] | Potency [16] 9.35 µM [cytotoxic, partial curve]
